# Test results from PubChem BioAssay AID330 (DTP/NCI, 2004).
# The list does not hold the whole screen: it is rich in T/C values a quarter to a half above the control, in often repeated tests (any T/C) and in doses without a T/C. Further doses and runs are listed elsewhere. T/C: endpoint of the treated group in % of that of the vehicle group. Some doses have a count of surviving animals in place of a T/C: the source files T/C as zero there, which appears to mark a toxic dose or a test without result, not a measured value. Some survivor counts are full or nearly so, which does not show that the dose was tolerated: survival well below the control is almost never listed, so the zero probably covers shortened survival too. Survivors were counted at the toxicity check, usually on the fifth day, unless a day is given; later deaths do not show. Schedules are NCI's codes, taken here to give the interval after Q, in days (D) or hours (H), and the number of doses after X. Some structures stand for samples that the source files as different forms (salt, stereo form or complex); doses refer to the form tested. Some entries hold several experiments; their values stand side by side, smallest first. For survival time, this PubChem deposit counts one and a half times the control or more as active, and values a quarter to a half above the control carry no call in these data; other NCI protocols may use other cut-offs.
# System: P388 leukemia ip, CD2F1 mice, survival T/C
# Assay: NCI In Vivo Anticancer Drug Screen. Data for tumor model P388 Leukemia (intraperitoneal) in CD2F1 (CDF1) mice
# Settings: T/C endpoint: median survival time, higher T/C = longer survival
# [1] = dose: 200.0 mg/kg/injection, schedule: Q01DX005 (ip), vehicle: Klucel (hydroxypropylcellulose) (HPC)
# [2] = dose: 240.0 mg/kg/injection, schedule: Q01DX005 (ip), vehicle: saline with Tween-80
# [3] = dose: 400.0 mg/kg/injection, schedule: Q04DX003 (ip), vehicle: saline with Tween-80
structure (smiles),measurement,setting,value
CCOC(=O)c1ccc(NN=NCCF)cc1,survivor count,"dose: 50.0 mg/kg/injection, schedule: Q01DX005 (ip), vehicle: distilled water + Tween-80",0 of 5 and 3 of 6
same,survivor count,"dose: 100.0 mg/kg/injection, schedule: Q01DX005 (ip), vehicle: distilled water + Tween-80",0 of 6
same,survivor count,"dose: 200.0 mg/kg/injection, schedule: Q01DX005 (ip), vehicle: distilled water + Tween-80",0 of 6
C/C(=C\c1ccccc1)C(=O)C(CN(C)C)CN(C)C,survivor count,"dose: 15.0 mg/kg/injection, schedule: Q01DX005 (ip), vehicle: saline",0 of 6
same,survivor count,"dose: 30.0 mg/kg/injection, schedule: Q01DX005 (ip), vehicle: saline",0 of 6
same,survivor count,"dose: 60.0 mg/kg/injection, schedule: Q01DX005 (ip), vehicle: saline",0 of 6
same,survivor count,"dose: 120.0 mg/kg/injection, schedule: Q01DX005 (ip), vehicle: saline",0 of 6
same,survivor count,"dose: 240.0 mg/kg/injection, schedule: Q01DX005 (ip), vehicle: saline",0 of 6
O=C1CCSC(=S)N1c1ccc(Cl)c(C(F)(F)F)c1,T/C,"dose: 200.0 mg/kg/injection, schedule: Q01DX009 (ip), vehicle: saline",128 % of control
CS(=O)(=O)C(=C1C(=O)NC(=O)NC1=O)S(C)(=O)=O,survivor count,"dose: 100.0 mg/kg/injection, schedule: Q01DX005 (ip), vehicle: Klucel (hydroxypropylcellulose) (HPC)",4 of 6
same,survivor count,[1],0 of 6
O=C(CC(=O)c1ccccc1F)Nc1ccc([N+](=O)[O-])cc1,survivor count,"dose: 100.0 mg/kg/injection, schedule: Q01DX009 (ip), vehicle: saline with Tween-80",6 of 6
same,survivor count,"dose: 200.0 mg/kg/injection, schedule: Q01DX009 (ip), vehicle: saline with Tween-80",6 of 6
same,survivor count,"dose: 400.0 mg/kg/injection, schedule: Q01DX009 (ip), vehicle: saline with Tween-80",5 of 6
[CH3][Sn]([CH3])([O]S(=O)c1ccc(Cl)cc1)[O]S(=O)c1ccc(Cl)cc1 (centres undefined),survivor count,"dose: 400.0 mg/kg/injection, schedule: Q01DX001 (ip), vehicle: Klucel (hydroxypropylcellulose) (HPC)",0 of 6
CCOC(=O)c1cc(=O)oc(=O)[nH]1,survivor count,"dose: 50.0 mg/kg/injection, schedule: Q04DX003 (ip), vehicle: Klucel (hydroxypropylcellulose) (HPC)",6 of 6
O=C(O)C/[N+]([O-])=N\O,survivor count,"dose: 800.0 mg/kg/injection, schedule: Q04DX003 (ip), vehicle: saline",1 of 6
O=C(NCCCl)Oc1c(Cl)cc(Cl)cc1Cl,survivor count,"dose: 50.0 mg/kg/injection, schedule: Q01DX005 (ip), vehicle: Klucel (hydroxypropylcellulose) (HPC)",4 of 6
same,survivor count,"dose: 75.0 mg/kg/injection, schedule: Q01DX005 (ip), vehicle: Klucel (hydroxypropylcellulose) (HPC)",3 of 6
COC(=O)c1nnn(-c2ccc(C)c(C)c2)c1C(=O)c1ccccc1,survivor count,[2],6 of 6
CC1=CCC(C)C(C)(C)C1CC/C(C)=C/CCC1(C)C(CCCO)/C(=C(\C)C=O)CCC1(C)O (centres undefined),survivor count,"dose: 9.0 mg/kg/injection, schedule: Q01DX005 (ip), vehicle: Klucel (hydroxypropylcellulose) (HPC)",4 of 6
same,survivor count,"dose: 18.0 mg/kg/injection, schedule: Q01DX005 (ip), vehicle: Klucel (hydroxypropylcellulose) (HPC)",0 of 6
same,survivor count,"dose: 36.0 mg/kg/injection, schedule: Q01DX005 (ip), vehicle: Klucel (hydroxypropylcellulose) (HPC)",0 of 6
CCOC(=O)C1=C(c2ccccc2)N=c2ccccc2=S1C (centres undefined),survivor count,"dose: 120.0 mg/kg/injection, schedule: Q01DX005 (ip), vehicle: saline with Tween-80",2 of 6
same,survivor count,[2],0 of 6
O=C(Nc1cccc(C(F)(F)F)c1)OC1CC2CC1C1CC3OC3C21 (centres undefined),survivor count,[1],6 of 6
CC1=C/C(=N\SC(c2ccccc2)(c2ccccc2)c2ccccc2)CCC1,survivor count,"dose: 400.0 mg/kg/injection, schedule: Q04DX002 (ip), vehicle: saline with Tween-80",6 of 6
CCc1c(CC(=O)O)c2cc(C)ccc2n1Cc1ccc(Cl)cc1,survivor count,"dose: 100.0 mg/kg/injection, schedule: Q04DX003 (ip), vehicle: saline with Tween-80",5 of 6
same,survivor count,"dose: 200.0 mg/kg/injection, schedule: Q04DX003 (ip), vehicle: saline with Tween-80",3 of 6
same,survivor count,"dose: 200.0 mg/kg/injection, schedule: Q04DX003 (ip), vehicle: saline",0 of 6
same,survivor count,[3],0 of 6 and 4 of 6
same,survivor count,"dose: 400.0 mg/kg/injection, schedule: Q04DX003 (ip), vehicle: saline",1 of 6
CNNC(=O)OC,survivor count,"dose: 200.0 mg/kg/injection, schedule: Q01DX002 (ip), vehicle: saline",6 of 6
CCC(C)(C)N=C(NC(=O)C(F)(F)F)Nc1cccnc1,survivor count,[3],5 of 6
